We go through one compound from article PMC7179419 (Molecules, 2020).

Experiment [1] has as its system normal murine embryonic fibroblast cell line (BALB/3T3). The experiment is described as follows: Antiproliferative assay in vitro (SRB, 72 h), BALB/3T3 normal cells. Type of experiment: cell-based. As to conditions: Mus musculus, normal cell line BALB/3T3, 72 h, mean ± SD. As to the method:
(§1) For a more accurate evaluation of cytotoxic activity, the effect on normal murine embryonic fibroblast cell line (BALB/3T3) was also tested according to the previously published procedure. Detailed information concerning antiproliferation assay can be found in Supplementary Materials. […]
(§2) The antiproliferative activity
(§3) Four human cancer cell lines and one murine normal cell line were used to evaluate […]
(§4) (A549), human breast adenocarcinoma (MCF-7), human colon adenocarcinoma cell lines sensitive and resistant to doxorubicin (LoVo), respectively, and normal murine embryonic fibroblast cell line (BALB/3T3). The BALB/3T3 cell line was purchased from the American Type Culture Collection (ATCC, Manassas, VA, USA), A549 and MCF-7 cell lines—from European Collection of Authenticated Cell Cultures (Salisbury, UK), LoVo cell line was purchased from the ATCC (ATCC, Manassas, VA, USA). All the cell lines are maintained in the Institute of Immunology and Experimental Therapy (IIET), Wroclaw, Poland. Human lung adenocarcinoma cell line was cultured in mixture of OptiMEM and RPMI 1640 (1:1) medium (IIET, Wroclaw, Poland), supplemented with 5% fetal bovine serum (GE Healthcare, Logan, UT, USA) and 2 mM L-glutamine (Sigma-Aldrich, Merck KGaA, Saint Louis, MO, USA). […]

Experiment [2] concerns human lung adenocarcinoma (A549). Kind of experiment: cells. The format is cell-based. As to conditions: A549, 72 h, read-out: A549 IC50. As to the method: as §1, §2, §3, §4

Usually IC50 stands for the concentration that gives 50% inhibition.

Turning to `COc1cc2c(c(OC)c1OC)-c1ccc(OC)c(=O)cc1[C@@H](NC(C)=O)CC2` [colchicine, reference compound], the IC50 in experiment [1] turned out to be 40 ± 10 nM; in experiment [2] it was 70 ± 10 nM.
